Experimental data from US9670363B2, “Substituted anthraquinone dyes for cellular stains and enzyme detection” (Biotium, Inc., priority 2011, dated 2017).

Tested on: calf thymus DNA
Assay: Absorption and emission spectra in the presence of DNA
Assay type: physicochemical
Conditions: Dye 1 uM, 40 ug/mL calf thymus DNA

With CN(C)CCNc1ccc(O)c2c1C(=O)c1c(O)ccc(NCCNC(=N)CCCCC(=N)NCCNc3ccc(O)c4c3C(=O)c3c(O)ccc(NCCN(C)C)c3C4=O)c1C2=O [Dye No. 7] the “absorption spectrum (excitability)” value was “excitable by common laser lines at 633, 635, 640 and 647 nm” and the fluorescence emission region was “far-red to near-IR region”.
